# Test results: US20130131088A1 (UNIVERSITY HEALTH NETWORK, priority 2010, published 2013)
# At least one structure is not confirmed: it was looked up by name or label, or the drawing left a doubt.
# System: CREB phosphorylation
# Assay: CREB phosphorylation immunoblot (LI-COR quantification)
# Format: cell-based
# Settings: AML-3 cell line, 2 hours post-treatment
# Description: As cilostazol inhibits PDE3 which activates. PKA, studies were carried out using various PKA activators, including forskolin, a cell permeable analog of cAMP, db-cAMP, and a PDE3 inhibitor.
smiles,measurement,value
C=C[C@@]1(C)CC(=O)[C@]2(O)[C@@]3(C)[C@@H](O)CCC(C)(C)[C@@H]3[C@H](O)[C@H](OC(C)=O)[C@@]2(C)O1 [forskolin],CREB phosphorylation,increase
